Measured values reported in PubChem BioAssay AID2685 (National Center for Advancing Translational Sciences (NCATS), 2010).
Some of the results follow. Shown are side measurements of this screen, not its main read-out; they come without a call. Most of these compounds were active or inconclusive in the main read-out, so they are no random draw. The note in brackets gives the kind of curve behind each potency; many fits are weak.

Test: qHTS Assay for Lipid Storage Modulators in Drosophila S3 Cells;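 as to cell number change: cells counted by Cell Tracker Red CMTPX staining in the red channel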
Conditions: BODIPY lipid droplet fluorescence, 18-24 h; for cell number change: measured here: cell count max response, cells fed with added oleic acid
Outline: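 Laser-scanning cytometry quantifies lipid droplet accumulation (500–530 nm total intensity; droplet/cell object ratio) in oleic acid-fed (400 uM added) Drosophila S3 cells treated with a concentration series. 20 uM Triacsin C defined 100% inhibition.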

[1] = measured here: lipid fluorescence (Fed channel) AC50, cells fed with added oleic acid
[2] = measured here: cell number channel AC50, cells fed with added oleic acid

COc1ccc(N(CC(=O)NCc2ccccc2Cl)S(=O)(=O)c2c(C)noc2C)cc1
cell number change: 15.3% | AC50 [1]: 0.58 µM [rising, single point]

Cn1c(=O)c2c(nc(CN3CCOCC3)n2CCc2ccccc2)n(C)c1=O
AC50 [2]: 6.51 µM [rising, partial curve, poor fit]

CCOC(=O)c1cc(OCC(=O)NC(C)C(C)C)cc(C(=O)OCC)c1 (stereo not drawn)
cell number change: -0.79% | AC50 [1]: 0.146 µM [rising, full curve, poor fit]

CCN(C(=O)Cc1c(C(=O)O)n(C)c2ccccc12)c1cccc(C)c1
cell number change: -8.11%

COC(=O)[C@@H](Cc1c[nH]c2ccccc12)NC(=O)CNC(=O)c1ccccc1OC
cell number change: 19.7%

NS(=O)(=O)c1ccc(-c2cccc(/C=C3\SC(=O)NC3=O)c2)cc1
cell number change: -1.8%

CCC(=O)n1nc(-c2cccnc2)nc1NCc1ccc(OC)cc1
cell number change: -11.8% | AC50 [1]: 25.9 µM [falling, single point]

CSCCC(NC(=O)COc1ccccc1)C(=O)NCCOc1ccccc1 (stereo not drawn)
cell number change: -13.1% | AC50 [2]: 6.51 µM [falling, single point] | AC50 [1]: 6.51 µM [falling, single point]

CC(=O)c1ccc(-n2c(C)ccc2-c2ccccc2)cc1
AC50 [1]: 6.51 µM [falling, single point]

O=C(CCCN1C(=O)[C@H]2CC=CC[C@H]2C1=O)NCc1nc(-c2ccccc2)no1
cell number change: 16.1%

COc1cccc(CNC(=O)COC(=O)c2ccc(C(=O)c3ccccc3)cc2)c1
cell number change: -55.3% | AC50 [2]: 20.6 µM [falling, partial curve, poor fit] | AC50 [1]: 23.1 µM [falling, partial curve, poor fit]

Cc1ccc(O)c(NC(=O)c2cccc(S(=O)(=O)N3CCCCC3)c2)c1
cell number change: -13.1%

CCN1CCN(S(=O)(=O)c2ccc(Cl)c(C(=O)NC3CCCCC3)c2)CC1
cell number change: 1.76% | AC50 [1]: 6.51 µM [rising, single point]

CC(C)(C)OC(=O)N1CCN(C(=O)c2nc[nH]c2C(=O)N2CCN(c3ccccc3)CC2)CC1
cell number change: 10.5% | AC50 [2]: 0.092 µM [falling, single point]

O=C(OCc1cc2ccccc2[nH]c1=O)C1CCCCC1
cell number change: -13.4% | AC50 [1]: 32.6 µM [falling, single point]

COc1ccc(OC(=O)COc2cccc(C)c2)cc1
cell number change: -8.52%

CCOc1ccc(N2CC(C(=O)NCCN3C(=O)S/C(=C/c4cccnc4)C3=O)CC2=O)cc1 (stereo not drawn)
cell number change: -39.2% | AC50 [2]: 11.6 µM [falling, partial curve] | AC50 [1]: 4.11 µM [falling, partial curve]

Cc1cc(C)cc(C(=O)NCC(=O)OCC(=O)N2c3ccccc3NC(=O)C2(C)C)c1
cell number change: 5.28% | AC50 [1]: 0.92 µM [rising, single point]

CC1Cc2ccccc2N1C(=O)CO/N=C/c1ccc(OC(F)F)cc1 (stereo not drawn)
cell number change: 0.689%

CC(=O)N1CCN(c2ccc(Oc3ccc([N+](=O)[O-])c(C(F)(F)F)c3)cc2)CC1
cell number change: 3.23%

CN1C(=O)CS(=O)c2ccc(C(=O)NCCC3=CCCCC3)cc21 (stereo not drawn)
cell number change: -42% | AC50 [2]: 8.2 µM [falling, partial curve, poor fit] | AC50 [1]: 14.6 µM [falling, partial curve]

Cc1ccccc1NC(=O)c1cccc(N2C(=O)C3C4CCC(C4)C3C2=O)c1 (stereo not drawn)
cell number change: 18.3% | AC50 [1]: 3.26 µM [rising, partial curve]

Clc1ccc(-n2ncc3c(NCc4ccc5c(c4)OCO5)ncnc32)cc1
cell number change: 3.24%

Cc1ccc(C(=O)COC(=O)C2CC(=O)N(c3nc(-c4ccccc4)cs3)C2)cc1 (stereo not drawn)
cell number change: 1.71%

Fc1ccc(CN2CCSCC2)cc1Br
cell number change: -19.8%

CCOC(=O)C(C)Sc1nc2c(c(=O)[nH]c(=O)n2C)n1CCc1ccccc1 (stereo not drawn)
cell number change: -4.7% | AC50 [1]: 6.51 µM [rising, single point]

COc1ccc(S(=O)(=O)N(CCCN2CCCC2=O)Cc2cc3cc(C)c(C)cc3[nH]c2=O)cc1
cell number change: 68.7% | AC50 [2]: 0.326 µM [rising, full curve] | AC50 [1]: 1.46 µM [rising, partial curve]

Cc1cc(S(=O)(=O)N(Cc2ccc3c(c2)OCO3)CC2CCCO2)ccc1-n1cnnn1 (stereo not drawn)
AC50 [2]: 1.3 µM [rising, partial curve] | AC50 [1]: 1.3 µM [rising, full curve]

O=S(=O)([O-])CCC[n+]1c(/C=C\Nc2ccccc2)oc2ccc(-c3ccccc3)cc21
cell number change: -91% | AC50 [2]: 16.4 µM [falling, single point]

Cc1ccccc1C(=O)NC1CC2CCCC(C1)N2Cc1ccccc1 (stereo not drawn)
cell number change: 9.94% | AC50 [1]: 0.103 µM [rising, full curve, poor fit]

CCN(CC)CCNC(=O)c1ccc(NC(=O)c2ccc(COc3ccccc3)cc2)cc1
cell number change: 88.1% | AC50 [2]: 29.1 µM [rising, single point]

CN1CCN(C2=Nc3c(Cl)cc(Cl)c4cccc2c34)CC1
cell number change: -4.96% | AC50 [1]: 0.82 µM [rising, single point]

CCOC(=O)C1(S(=O)(=O)c2ccccc2)CCN(Cc2ccc(Cl)cc2)CC1
AC50 [2]: 0.0651 µM [falling, full curve, poor fit]

CNC1(C(N)=O)CCNCC1
cell number change: -3.11% | AC50 [1]: 6.51 µM [falling, single point]

O=C(N/C(=C\c1ccc(Cl)cc1)C(=O)N1CCCCC1)c1ccco1
cell number change: -13.2% | AC50 [2]: 0.092 µM [falling, full curve, poor fit]

COc1cc(/C=N/NC(=O)c2nnn(-c3nonc3N)c2C(C)C)ccc1OCc1ccccc1
cell number change: 35.6% | AC50 [2]: 29.1 µM [rising, single point]

CN=C(Nc1cc(C)nn1CCC#N)c1ccccc1
cell number change: 4.81%

Cc1cccc(SC2CCN(C(=O)C3CCC(=O)N(C4CC4)C3)CC2)c1 (stereo not drawn)
cell number change: -9.79% | AC50 [1]: 0.82 µM [falling, full curve, poor fit]

CCCCc1ccc(NC(=O)NCc2cccnc2)cc1
cell number change: -7.8% | AC50 [1]: 3.66 µM [rising, single point]

Cc1cc2cc(CN(CCCO)S(=O)(=O)c3cccc4nsnc34)c(=O)[nH]c2cc1C
AC50 [2]: 0.651 µM [falling, single point] | AC50 [1]: 0.13 µM [falling, full curve, poor fit]

O=C(COc1ccc2c3c(c(=O)oc2c1)CCC3)Nc1ccc(CN2CCOCC2)cc1
cell number change: 23.3% | AC50 [2]: 4.61 µM [rising, single point]

O=C(CNC(=O)c1sc2ccccc2c1Cl)NCc1cccnc1
AC50 [1]: 29.1 µM [falling, single point]

COc1ccc(OCC(=O)OCC(=O)Nc2ccc(S(=O)(=O)N3CCCCC3)cc2)cc1
cell number change: -24.4% | AC50 [1]: 3.66 µM [falling, full curve]

O=C(NC(=S)NCc1ccccc1)c1ccccc1Br
cell number change: 11.7% | AC50 [1]: 29.1 µM [falling, single point]

COc1ccc(/C=C(\C#N)c2n[nH]c(Cn3cncn3)n2)cc1
cell number change: 79.4% | AC50 [2]: 16.4 µM [rising, partial curve]

O=C(NC(C(=O)c1ccccc1)N1CCCCC1)c1ccccc1 (stereo not drawn)
cell number change: 8.59% | AC50 [1]: 29.1 µM [rising, single point]

O=C(COC(=O)CNC(=O)c1cccc(Br)c1)Nc1nnc(-c2ccccc2)o1
cell number change: 11.5% | AC50 [1]: 23.1 µM [rising, partial curve]

Cc1c(-c2cc(Br)ccc2O)nc2cc3c(cc2c1C)OCO3
cell number change: -1.17% | AC50 [1]: 0.082 µM [rising, full curve, poor fit]

COc1cccc(NC(=O)CN(C)C(=O)c2cc(-c3cccc(Br)c3)nc3ccccc23)c1
cell number change: 10.4%

O=C(Oc1ccc(OC(=O)C2CCC2)cc1)C1CCC1
cell number change: -56.7% | AC50 [2]: 25.9 µM [falling, single point] | AC50 [1]: 4.61 µM [falling, partial curve, poor fit]

COc1cc(/C=N/NC(=O)c2ccncc2)ccc1OCC(=O)Nc1cccc([N+](=O)[O-])c1
cell number change: 1.74% | AC50 [1]: 0.103 µM [rising, full curve, poor fit]

CCN1CCN(C(CNC(=O)c2ccc3c(c2)OCO3)c2cccnc2)CC1 (stereo not drawn)
cell number change: -0.711%

Cc1ccc(S(=O)(=O)c2nc(-c3cccs3)oc2SCC(N)=O)cc1
cell number change: 31.6% | AC50 [2]: 4.61 µM [rising, partial curve, poor fit]

CC(=O)Nc1cccc(NC(=O)c2cc(-c3cccnc3)nc3ccc(Cl)cc23)c1
cell number change: -63.3% | AC50 [2]: 14.6 µM [falling, partial curve] | AC50 [1]: 16.4 µM [falling, partial curve]

Cc1cnc(C(=O)Nc2ccc(C(C)C)cc2)cn1
cell number change: 105% | AC50 [2]: 20.6 µM [rising, single point]

CCOc1ccc(NC(=S)NCCCN2CCOCC2)cc1
cell number change: -36.9% | AC50 [2]: 29.1 µM [falling, single point] | AC50 [1]: 23.1 µM [falling, single point]

Cc1ccc(N2CCN(C(=S)c3ccc(N(C)C)cc3)CC2)cc1
AC50 [1]: 2.59 µM [rising, partial curve]

CC(C)[C@@H](N)C(=O)N/N=C/c1ccc2nccnc2c1
cell number change: 49.6% | AC50 [2]: 16.4 µM [rising, single point] | AC50 [1]: 29.1 µM [rising, single point]

COc1ccc(-c2nnn(CC(=O)NCCc3ccc(OC)c(OC)c3)n2)cc1
cell number change: -46.3% | AC50 [2]: 2.06 µM [falling, full curve] | AC50 [1]: 5.8 µM [falling, partial curve]

CCNc1nc(NCC)nc(SCC(C)=O)n1
cell number change: 19.1% | AC50 [1]: 23.1 µM [falling, single point]

Cc1ccc(-n2nc3c(c2NC(=O)CC(C)C)CS(=O)(=O)C3)cc1
cell number change: -0.33% | AC50 [1]: 20.6 µM [rising, partial curve]
